Measured values: paper PMC10163288
This is one part of the list.

B1: il2ra_site1_3nfp_normal_mot_HHH_b1_03236_000000173_0001_17_33_H_._HHH_b2_01770_0001_0000100006_0000001_0_af2pred_0001_af2pred_swapped (protein)
chain: SSSSDYKELQELSREVEKLLKHGDKEEAEKVLEELEELAEKINSRIARLFVERLKRKLEELSSSS
B2: il2ra_site1_1z92_normal_mot_HHH_b1_05003_000000111_0001_1_20_H_._HHH_b1_04654_af2_0001_0000400010_0000001_0_af2pred_0001_af2pred_1 (protein)
chain: SSSSSEHERIRELIERVDELLRRGNDEEAEKLLEELKELAEETNSPVLKRLIEAAEELVELSSSS
B3: il2ra_site2_3nfp_sap_17_mot_HHH_b1_06238_000000047_0001_1_16_H_._HHH_b2_02195_0001_0000300040_0000001_0_0001 (protein)
chain: SEEEKEEIERLEKELREAVERNDKELIKEIIREIAHFVARHKDDPDAFELFALANEARLAVLEAS
B4: il2ra_site1_3nfp_normal_mot_HHH_b1_05523_000000027_0001_1_19_H_._HHH_b1_02072_af2_0001_0000100004_0000001_0_af2pred_0001_af2pred_1 (protein)
chain: SSSSSREEIKELLRKALELFENGNPEEAKRLLEEAKELAEELGDEVTVKFIEVLLKIVEGSSSSS
B5: il2ra_site1_3nfp_sap_20_mot_HHH_b2_02552_af2_000000235_0001_1_20_H_._HHH_b2_06600_0001_0000200021_0000001_0_0001 (protein)
chain: SAEQFERDIKRMGDPEALEALEQAVELLERLGVPPAEAAWIFIRLAVKLGDPEEALEVVEERVRK
B6: il2ra_site2_3nfp_normal_mot_HHH_b2_08110_af2_000000162_0001_23_39_H_._HHH_b1_00283_af2_0001_0000200024_0000001_1 (protein)
chain: SSSSDEEARKLAEEAEELAKQGDDEEVRKLLRRAVQIAWELRNHELFAFVADVATKLYELKSSSS
B7: il2ra_site1_1z92_normal_mot_1314d61ee722589b4fd511cf1ceb5c8f_0001_000000256_0001_17_32_H_._595119ead38f9ce12e857540ce41a9a5_0001_1_af2_0001_0000200007_0000001_0 … (protein)
chain: SEEEELRELAEEGDLQAIDELIIELEEKLNVPPEEAARILLEELERLGNPKAAKAVKHAIRAARA
B8: il2ra_site1_1z92_sap_10_mot_HHH_b1_07196_000000117_0001_22_39_H_._HHH_b1_00276_af2_0001_0000200005_0000001_0_0001_af2pred_0001_af2pred_1 (protein)
chain: SLEEALEFLEELAKELNDPALKFLVEQLERKVRLGNEEAARKQVEKALRFSGDPRLEEVLKLLRK
B9: il2ra_site2_2erj_normal_mot_76e6e8f7232a9e65eeaab5ff8ecb4c96_0001_000000242_0001_17_31_H_._HHH_b2_02630_af2_0001_0001000017_0000001_0_af2pred_0001_af2pred (protein)
chain: SSSSSDEEREEAEKLLEEAQEIEDPEEAKEVALEALEVAVRVDDEELEKRILELFERLRSSSSSS
B10: il2ra_site1_2b5i_normal_mot_f5ff40796168375b462bec8614a1db4a_0001_1_000000138_0001_53_65_H_._HHH_b1_06054_af2_0001_0000100001_0000001_0_af2pred_dldesign_0_af2pr … (protein)
chain: SSSSSEDLRENTERLLELARELYEKGELEEARKLLILAKKLAEKAKDPELIAEIDEALKLVSSSS

Biological target: il2ra, P01589
Test: yeast display titration

Apparent Kd, inactive:
B1 no binding seen
B2 no binding seen
B3 no binding seen
B4 no binding seen
B5 no binding seen
B6 > 684 nM
B7 no binding seen
B8 no binding seen
B9 no binding seen
B10 no binding seen
